This passage reports inhibition zone (IZ) results from ChEMBL document CHEMBL1909621, “Synthesis and biological evaluation of novel nitrogen- and sulfur-containing hetero-1,4-naphthoquinones as potent antifungal and antibacterial agents” (2011).

In this assay the test system is Aspergillus niger. Nature of the assay: Antifungal activity against Aspergillus niger F-1119 at 0.1% after 48 to 72 hrs by diffusion technique. The class given is functional. The method, boiled down:
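Fungi. Disk diffusion: 10⁹ spores (cells)/1 mL inoculum. Incubated 48–72 h at 28–30 °C. Zone around disk measured, with a nystatin control disk. Serial dilution: compounds dissolved in DMSO and diluted into wort agar, then inoculated. Incubated at 30 °C for 24–72 h. MIC recorded.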

For NYSTATIN, the inhibition zone (IZ) turned out to be 20 mm.
